Earlier results as cited in US6569839B1, “Fast-acting pharmaceutical compositions and methods of use” (priority 1998, dated 2003).
At least one structure is not confirmed: it was looked up by name or label, or the drawing left a doubt.

Conditions: cited from earlier work

C[C@H]1C[C@H]2[C@@H]3CCC4=CC(=O)C=C[C@]4(C)[C@@]3(F)[C@@H](O)C[C@]2(C)[C@@]1(O)C(=O)CO [Betamethasone]
anti-inflammatory characteristics relative to Hydrocortisone Sodium Succinate (Solu-Cortef): approximately 25 times
